These are yes or no findings as the source states them, for the method shown. In cells and extracts the contact can be indirect. Some results given as binding are weak or reduced against the parent protein; the word gives no strength.
Biological target: β3 protein (β3 integrin subunit) of human endothelial cells (human) (UniProt P05106)
Test: co-immunoprecipitation from human endothelial cells exposed to PTA-13161 antibody (FIG. 6C)

By UniProt entry, the sequences of proteins in these tests, tags left out. Where a name states a change or a piece, a line headed by the entry shows the natural chain unless it says otherwise. Residues count along the entry.
UniProt P05106, residues 27-788: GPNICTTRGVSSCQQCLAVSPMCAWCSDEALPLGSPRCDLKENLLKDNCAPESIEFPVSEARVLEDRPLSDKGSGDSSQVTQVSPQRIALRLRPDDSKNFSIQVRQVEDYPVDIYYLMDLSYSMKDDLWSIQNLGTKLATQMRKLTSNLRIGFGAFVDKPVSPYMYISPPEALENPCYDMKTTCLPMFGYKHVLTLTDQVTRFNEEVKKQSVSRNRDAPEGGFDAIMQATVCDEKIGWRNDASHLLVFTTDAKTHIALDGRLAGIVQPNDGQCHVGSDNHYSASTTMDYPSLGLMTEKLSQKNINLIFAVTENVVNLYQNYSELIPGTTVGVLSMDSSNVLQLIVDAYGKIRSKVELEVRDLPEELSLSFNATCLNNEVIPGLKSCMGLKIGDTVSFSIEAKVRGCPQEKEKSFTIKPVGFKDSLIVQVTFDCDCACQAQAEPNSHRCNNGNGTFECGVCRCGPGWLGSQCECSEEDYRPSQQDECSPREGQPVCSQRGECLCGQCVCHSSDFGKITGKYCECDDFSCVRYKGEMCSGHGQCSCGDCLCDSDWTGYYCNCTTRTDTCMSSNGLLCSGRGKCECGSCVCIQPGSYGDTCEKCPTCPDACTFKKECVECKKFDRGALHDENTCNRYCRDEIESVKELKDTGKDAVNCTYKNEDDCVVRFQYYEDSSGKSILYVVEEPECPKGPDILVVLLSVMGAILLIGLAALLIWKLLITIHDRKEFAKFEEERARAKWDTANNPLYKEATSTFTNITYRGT
UniProt Q08722: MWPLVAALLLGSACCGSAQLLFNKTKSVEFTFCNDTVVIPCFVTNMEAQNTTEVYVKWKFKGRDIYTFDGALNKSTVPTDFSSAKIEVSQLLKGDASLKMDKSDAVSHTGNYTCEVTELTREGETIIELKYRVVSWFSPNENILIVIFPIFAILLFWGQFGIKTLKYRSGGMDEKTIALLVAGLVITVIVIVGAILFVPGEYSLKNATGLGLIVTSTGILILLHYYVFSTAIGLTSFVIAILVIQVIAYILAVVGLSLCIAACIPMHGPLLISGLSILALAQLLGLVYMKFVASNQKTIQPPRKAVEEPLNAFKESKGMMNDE

With “human IAP protein (from UniProt Q08722 19-303) (receptor)” the binding was “binds”.
